Results taken from paper PMC3333781, “Systematic mapping of two component response regulators to gene targets in a model sulfate reducing bacterium”.

Assays:
Assay in all cases: EMSA
[1] = target: T1, DVU3023 response regulator (Desulfovibrio vulgaris Hildenborough) (UniProt Q726T3); conditions: 10 mM Tris-HCl pH 7.5, 1 mM DTT, 50 mM KCl, 5 mM MgCl2, 25% glycerol, 1 ug/ml poly dI-dC, 50-100 fmol biotinylated DNA, 25-30 C, 20 min; recombinant protein; protein details: C-terminal V5-6xHis; label: 5'-biotin top strand
T1 sequence (looked up, limits assumed): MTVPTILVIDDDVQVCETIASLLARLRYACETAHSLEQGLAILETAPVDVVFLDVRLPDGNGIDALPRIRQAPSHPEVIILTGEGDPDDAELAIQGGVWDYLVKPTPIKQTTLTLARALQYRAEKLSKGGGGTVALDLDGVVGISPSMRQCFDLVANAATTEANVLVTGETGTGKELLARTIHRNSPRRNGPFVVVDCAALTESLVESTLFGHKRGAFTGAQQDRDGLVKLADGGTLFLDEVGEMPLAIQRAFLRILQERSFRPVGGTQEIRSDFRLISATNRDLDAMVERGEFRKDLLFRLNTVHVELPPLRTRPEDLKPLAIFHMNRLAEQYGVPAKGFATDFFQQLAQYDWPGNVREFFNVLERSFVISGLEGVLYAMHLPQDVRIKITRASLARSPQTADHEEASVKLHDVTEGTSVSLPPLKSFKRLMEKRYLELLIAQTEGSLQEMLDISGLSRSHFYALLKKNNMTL

[2] = target: T2, DVU0539 response regulator (Desulfovibrio vulgaris Hildenborough) (UniProt Q72EN8); conditions: 10 mM Tris-HCl pH 7.5, 1 mM DTT, 50 mM KCl, 5 mM MgCl2, 25% glycerol, 1 ug/ml poly dI-dC, 50-100 fmol biotinylated DNA, 25-30 C, 20 min; recombinant protein; protein details: C-terminal V5-6xHis; label: 5'-biotin top strand
T2 sequence (looked up, limits assumed): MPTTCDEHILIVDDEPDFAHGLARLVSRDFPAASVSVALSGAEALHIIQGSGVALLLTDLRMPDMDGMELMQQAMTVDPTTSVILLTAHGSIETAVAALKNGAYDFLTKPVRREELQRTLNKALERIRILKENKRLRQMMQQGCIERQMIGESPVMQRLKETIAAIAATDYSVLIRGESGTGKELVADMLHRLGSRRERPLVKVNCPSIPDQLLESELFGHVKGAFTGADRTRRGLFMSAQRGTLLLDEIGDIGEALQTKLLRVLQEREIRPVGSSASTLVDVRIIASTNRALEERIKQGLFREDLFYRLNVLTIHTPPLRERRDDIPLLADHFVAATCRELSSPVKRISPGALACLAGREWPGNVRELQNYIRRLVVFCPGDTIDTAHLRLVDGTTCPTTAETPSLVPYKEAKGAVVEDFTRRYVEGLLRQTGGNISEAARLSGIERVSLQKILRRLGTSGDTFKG

[3] = target: T3, DVU0946 response regulator (Desulfovibrio vulgaris Hildenborough) (UniProt Q72DI3); conditions: 10 mM Tris-HCl pH 7.5, 1 mM DTT, 50 mM KCl, 5 mM MgCl2, 25% glycerol, 1 ug/ml poly dI-dC, 50-100 fmol biotinylated DNA, 25-30 C, 20 min; recombinant protein; protein details: C-terminal V5-6xHis; label: 5'-biotin top strand
T3 sequence (looked up, limits assumed): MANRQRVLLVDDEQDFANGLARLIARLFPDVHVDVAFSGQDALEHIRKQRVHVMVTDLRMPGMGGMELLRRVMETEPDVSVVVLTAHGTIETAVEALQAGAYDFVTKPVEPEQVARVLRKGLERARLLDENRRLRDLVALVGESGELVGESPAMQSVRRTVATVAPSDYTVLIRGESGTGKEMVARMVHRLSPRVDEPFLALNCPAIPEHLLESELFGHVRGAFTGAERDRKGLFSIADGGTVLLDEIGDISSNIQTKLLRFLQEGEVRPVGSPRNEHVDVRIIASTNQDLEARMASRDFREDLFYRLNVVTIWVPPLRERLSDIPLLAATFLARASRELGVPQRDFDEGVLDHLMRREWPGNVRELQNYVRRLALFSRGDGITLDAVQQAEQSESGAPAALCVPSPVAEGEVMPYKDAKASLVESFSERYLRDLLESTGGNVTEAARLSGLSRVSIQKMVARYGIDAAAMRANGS

[4] = target: T4, DVU2934 response regulator (Desulfovibrio vulgaris Hildenborough) (UniProt Q727C1); conditions: 10 mM Tris-HCl pH 7.5, 1 mM DTT, 50 mM KCl, 5 mM MgCl2, 25% glycerol, 1 ug/ml poly dI-dC, 50-100 fmol biotinylated DNA, 25-30 C, 20 min; recombinant protein; protein details: C-terminal V5-6xHis; label: 5'-biotin top strand
T4 sequence (looked up, limits assumed): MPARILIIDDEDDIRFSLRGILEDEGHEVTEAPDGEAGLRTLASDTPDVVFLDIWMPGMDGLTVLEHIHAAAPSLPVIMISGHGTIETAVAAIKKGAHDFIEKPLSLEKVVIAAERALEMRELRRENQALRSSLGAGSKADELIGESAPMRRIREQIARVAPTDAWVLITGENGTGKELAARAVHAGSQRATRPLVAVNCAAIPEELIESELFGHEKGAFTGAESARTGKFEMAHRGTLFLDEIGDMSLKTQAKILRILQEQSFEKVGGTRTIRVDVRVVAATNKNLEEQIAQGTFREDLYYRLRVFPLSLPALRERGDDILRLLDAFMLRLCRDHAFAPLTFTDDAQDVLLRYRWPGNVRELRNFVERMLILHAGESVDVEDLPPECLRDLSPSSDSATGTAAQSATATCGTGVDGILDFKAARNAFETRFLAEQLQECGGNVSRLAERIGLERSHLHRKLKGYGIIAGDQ

[5] = target: T5, DVU0621 response regulator (Desulfovibrio vulgaris Hildenborough) (UniProt Q72EF7); conditions: 10 mM Tris-HCl pH 7.5, 1 mM DTT, 50 mM KCl, 5 mM MgCl2, 25% glycerol, 1 ug/ml poly dI-dC, 50-100 fmol biotinylated DNA, 25-30 C, 20 min; recombinant protein; protein details: C-terminal V5-6xHis; label: 5'-biotin top strand; letters put together from the description
T5 sequence (looked up, limits assumed): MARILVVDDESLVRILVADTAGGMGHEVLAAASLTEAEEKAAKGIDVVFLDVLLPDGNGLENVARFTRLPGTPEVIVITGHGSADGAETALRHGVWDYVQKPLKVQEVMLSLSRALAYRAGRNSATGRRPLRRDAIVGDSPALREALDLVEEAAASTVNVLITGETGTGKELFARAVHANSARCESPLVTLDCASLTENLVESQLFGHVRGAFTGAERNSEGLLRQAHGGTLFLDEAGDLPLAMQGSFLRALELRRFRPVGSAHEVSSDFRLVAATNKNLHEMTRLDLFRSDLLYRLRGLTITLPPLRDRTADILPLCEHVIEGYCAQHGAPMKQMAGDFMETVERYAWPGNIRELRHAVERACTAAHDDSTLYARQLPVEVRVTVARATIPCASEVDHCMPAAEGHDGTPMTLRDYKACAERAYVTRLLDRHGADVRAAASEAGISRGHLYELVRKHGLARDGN

Q: Does “GCCACACGAAGTCCGCTTTTCAAGACACGCTACCAC (double strand) [DVU3025 motif wt]” bind [1]?
A: binds

Q: What does the source list for “AAAGGGCGCTAACACAGGTTTACGATGCAAA (double strand) [DVU0943 motif wt]”?
A: binding result [2]: binds; binding result [3]: binds

Q: Does “CTCGCCATGTGGTGTGCAGAACACACACTGTGCGTGG (double strand) [DVU2917 motif wt]” bind [4]?
A: binds

Q: Does “CTCGCGTTGTGGTGTGGATAACACACAGTGTGCGTGG (double strand) [DVU2917 motif, bases outside palindrome changed]” bind [4]?
A: binds

Q: Does “ACGGTGTCGTCATCTTTTTCTGTCACCTGTCATCTTTTTCTGACTCCTGCAAGG (double strand) [DVU0624 upstream binding-site substrate (54 bp)]” bind [5]?
A: binds

The exact form of at least one protein or probe is not confirmed. Where a protein sequence is shown, tags need not be part of it.
